In PMC12738837, “Structure of Trypanosoma peroxisomal import complex unveils conformational heterogeneity” (Nature Communications, 2025):
No constants are given. Whether binding was seen depends on the method and setting. Binding calls can cover weak binding; strength is not graded here.

Tests used:
[1] = target: glycosomal malate dehydrogenase (MDH, residues 1–323) (Trypanosoma cruzi) (UniProt Q4DRD8); assay: cryo-EM structure; MDH-Pex5 binary complex reconstituted as the ternary complex but without Pex14NTD; both purified
[2] = target: glycosomal malate dehydrogenase (MDH, residues 1–323) (Trypanosoma cruzi) (UniProt Q4DRD8); assay: cryo-EM structure; ternary complex: purified MDH (tetramer), full-length Pex5 and Pex14NTD mixed at 1:4:12, overnight at 4 °C, separated on Superose6 10/300, vitrified at ~0.75 mg/mL; no cross-linking; MDH alone solved from the same dataset; both purified

B1: full length Pex5 (residues 1–666) (receptor, Trypanosoma cruzi, UniProt Q4DPQ9 1-668, looked up)
chain: MDCSTGAAIGQQFAKDAFHMHGGVGVGPTGNPEHDVLMNEMMMVQTPTGPAGEWTHQFAAYQGKQQQQHPQELAMRHQQNDALMLRQQQEMEEAFCTLCAAHPHSHAHSHAHSHQPQGLVGPAMMGPQIMPPMMFGPGSGGFMMGTPPMMPYASMKFAGDAAMAAANNTTMTQGATATSTTSVQQEQQQQQSSDNGWVEKLRDAEWAQDYSDAQVFTLEGQSEQTMEEHAKNSEFYQFMDKIRSKELLIDEETGQLVQGPGPDPDAPEDAEYLKEWAAAEGLNMPPGFFEHMMQRPQGNNEQAEGRLFDGSNDALMDDGALDNAADVEEWAREYAEAQEQLQRVQNETNYPFEPNNPYMYHDKPMEEGIAMLQLANMAEAALAFEAVCQKEPENVEAWRRLGTTQAENEKDCLAIIALNHARMLDPKDIAVHAALAVSHTNEHNVGAALQSLRSWLLSQPQYEHLGLVDLQEVAADEGLDEVPEENYFFAAPSEYRDCCTLLYAAVEMNPNDPQLHASLGVLHNLSHRFDEAAKNFRRAVELRPDDAHTWNKLGATLANGNRPQEALEAYNRALDINPGYVRVMYNMAVSYSNMAQYPLAAKHITRAIALQAGGTNPQGEGSRIATRGLWDLLRMTLNLMDRSDLVEASWQQDLTPFLKEFGLEDMAV
notes: Pex5, Trypanosoma cruzi, full length, residues 1-666, GenBank PBJ69826.1; Contains three Wxxx(F/Y) motifs; source: E. coli BL21 (DE3), purified (Ni-NTA, SEC)
For B1, which binding [1] is on record?
Its binding is “binds”.

And the binding [2]?
Its binding is “binds”.
